Data reported in paper PMC5207708.

T1: MIER2 (UniProt Q8N344)
T1 sequence: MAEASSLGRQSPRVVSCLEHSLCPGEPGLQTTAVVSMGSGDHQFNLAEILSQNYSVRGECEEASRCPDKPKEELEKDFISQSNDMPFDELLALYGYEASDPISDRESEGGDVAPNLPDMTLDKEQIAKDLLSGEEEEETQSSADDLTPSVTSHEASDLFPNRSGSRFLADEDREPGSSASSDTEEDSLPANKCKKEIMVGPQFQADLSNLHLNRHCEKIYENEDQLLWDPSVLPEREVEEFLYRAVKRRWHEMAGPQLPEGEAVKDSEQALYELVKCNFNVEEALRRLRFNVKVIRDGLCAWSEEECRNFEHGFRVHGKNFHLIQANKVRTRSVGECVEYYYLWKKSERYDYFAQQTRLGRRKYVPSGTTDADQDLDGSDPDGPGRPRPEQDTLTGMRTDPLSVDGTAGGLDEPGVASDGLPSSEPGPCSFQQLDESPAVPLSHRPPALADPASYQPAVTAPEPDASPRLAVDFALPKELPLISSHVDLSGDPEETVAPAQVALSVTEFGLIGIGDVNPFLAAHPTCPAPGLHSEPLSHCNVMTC


Legend:
[1] = target: T1, MIER2; assay: co-IP; HEK293 cells co-transfected with a myc-tagged and a flag-tagged protein; lysis in 1% Triton X-100, 150 mM NaCl, 20 mM Tris-Cl pH 7.5, 1 mM EDTA; IP with 9E10 anti-myc overnight at 4°C; Western with anti-flag
[2] = target: MIER1α (human); assay: as above

Row | binding [1] | binding [2] | Molecule
1 | no binding |  | MIER1α (human)
2 |  | no binding | MIER2 (protein, UniProt Q8N344 1-545) MAEASSLGRQSPRVVSCLEHSLCPGEPGLQTTAVVSMGSGDHQFNLAEILSQNYSVRGECEEASRCPDKPKEELEKDFISQSNDMPFDELLALYGYEASDPISDRESEGGDVAPNLPDMTLDKEQIAKDLLSGEEEEETQSSADDLTPSVTSHEASDLFPNRSGSRFLADEDREPGSSASSDTEEDSLPANKCKKEIMVGPQFQADLSNLHLNRHCEKIYENEDQLLWDPSVLPEREVEEFLYRAVKRRWHEMAGPQLPEGEAVKDSEQALYELVKCNFNVEEALRRLRFNVKVIRDGLCAWSEEECRNFEHGFRVHGKNFHLIQANKVRTRSVGECVEYYYLWKKSERYDYFAQQTRLGRRKYVPSGTTDADQDLDGSDPDGPGRPRPEQDTLTGMRTDPLSVDGTAGGLDEPGVASDGLPSSEPGPCSFQQLDESPAVPLSHRPPALADPASYQPAVTAPEPDASPRLAVDFALPKELPLISSHVDLSGDPEETVAPAQVALSVTEFGLIGIGDVNPFLAAHPTCPAPGLHSEPLSHCNVMTC

No constants are given. Whether binding was seen depends on the method and setting. In cells and extracts the contact can be indirect.
